Laboratory results from patent US8076367B2, “Benzimidazolylidene propane-1,3-dione derivative or salt thereof” (Astellas Pharma Inc., priority 2004, dated 2011).

assay: Measurement of blood concentration of a compound by ex vivo binding assay; parameters: species or system Wistar male rat; conditions: B in μM divided by A in nM
Experimental: Each compound to be tested was dissolved or suspended in 0.5% methyl cellulose (MC) solution and was orally administered to Wistar male rat of 9 weeks of age (SLC Japan) at a dose of 10 mg/kg. Blood sample was collected after 2 hours of the administration to obtain serum.
Each serum sample was mixed with the same volume of methanol to remove protein and optionally diluted with an assay buffer, and then the ^125I-D-Trp^6-LHRH binding inhibition ratio was measured in the same manner as in Test Example 1. Using a separately prepared calibration curve on the concentration-binding inhibition of compounds to be tested, blood concentration of each compound (μM) was calculated from the binding inhibition ratio.

Compared with `O=C(C(C(=O)c1cccc(C(O)CO)c1)=C1Nc2ccccc2N1)c1cccc(F)c1` (stereo not drawn) [Ex 2-7], `O=C(C(C(=O)c1cccc([C@@H](O)CO)c1)=C1Nc2ccccc2N1)c1cccc(F)c1` [Ex 4-1, 2-(1,3-dihydro-2H-benzimidazol-2-ylidene)-1-{3-[(1R)-1,2-dihydroxyethyl]phenyl}-3-(3-fluorophenyl)propane-1,3-dione] is higher in “(B)/(A) ratio of blood compound concentration (B) to GnRH receptor antagonism (A)” value (shortened to “(B)/(A) ratio”): 8.7 for the first, 14.6 for the second.

Going from `O=C(C(C(=O)c1cccc(C(O)CO)c1)=C1Nc2ccc(F)cc2N1)c1cc(F)cc(F)c1` (stereo not drawn) [Ex 2-5] to `O=C(C(C(=O)c1cccc(C(O)CO)c1)=C1Nc2cc(F)c(Cl)cc2N1)c1cc(F)cc(F)c1` (stereo not drawn) [Ex 2-12], the “(B)/(A) ratio” value falls from 8.2 to 6.1.

Compared with `Cc1c(C(=O)C(C(=O)c2ccccc2F)=C2Nc3ccccc3N2)cccc1[C@@H](O)CO` [Ex 4-29], `Cc1cccc(C(=O)C(C(=O)c2cccc([C@@H](O)CO)c2C)=C2Nc3ccccc3N2)c1` [Ex 4-25] is lower in “(B)/(A) ratio” value: 33.9 for the first, 9.9 for the second.

Compared with `O=C(C(C(=O)c1cccc([C@@H](O)CO)c1Cl)=C1Nc2ccccc2N1)c1cccc(Cl)c1` [Ex 4-15], `O=C(C(C(=O)c1cccc([C@@H](O)CO)c1Cl)=C1Nc2ccccc2N1)c1cccc(F)c1` [Ex 4-21] is lower in “(B)/(A) ratio” value: 19.0 for the first, 9.0 for the second.

First: CCCCc1c(C(=O)C(C(=O)c2cccc(F)c2)=C2Nc3ccccc3N2)cccc1[C@@H](O)CO [Ex 4-8]
Second: O=C(C(C(=O)c1cccc([C@@H](O)CO)c1F)=C1Nc2ccccc2N1)c1cccc(F)c1 [Ex 4-4]
The “(B)/(A) ratio” value of the first is higher: 22.1 for the first, 10.4 for the second.

First: O=C(C(C(=O)c1cccc(C(O)CO)c1)=C1Nc2ccccc2N1)c1cccc(Cl)c1 (stereo not drawn) [Ex 2-50]
Second: O=C(C(C(=O)c1cccc(C(O)CO)c1)=C1Nc2ccccc2N1)c1cc(F)cc(Cl)c1 (stereo not drawn) [Ex 2-3]
The “(B)/(A) ratio” value of the first is lower: 7.3 for the first, 8.7 for the second.

First: O=C(C(C(=O)c1ccc(F)c([C@@H](O)CO)c1)=C1Nc2ccccc2N1)c1cc(F)cc(F)c1 [Ex 4-22]
Second: O=C(C(C(=O)c1cc(C(O)CO)ccc1F)=C1Nc2ccccc2N1)c1cc(F)cc(F)c1 (stereo not drawn) [Ex 2-20]
The “(B)/(A) ratio” value of the first is higher: 16.7 for the first, 5.7 for the second.

Compared with `O=C(C(C(=O)c1cccc([C@@H](O)CO)c1F)=C1Nc2ccccc2N1)c1cc(F)cc(F)c1` [Ex 4-33], `O=C(C(C(=O)c1cccc([C@@H](O)CO)c1Cl)=C1Nc2ccccc2N1)c1cc(F)cc(F)c1` [Ex 4-30] is higher in “(B)/(A) ratio” value: 13.3 for the first, 15.0 for the second.

Going from `O=C(C(C(=O)c1cc(F)cc(F)c1F)=C1Nc2ccccc2N1)c1cccc(C(O)CO)c1` (stereo not drawn) [Ex 2-48] to `O=C(C(C(=O)c1cc(F)c(F)c(F)c1)=C1Nc2ccccc2N1)c1cccc(C(O)CO)c1` (stereo not drawn) [Ex 2-4], the “(B)/(A) ratio” value falls from 9.8 to 7.7.

Going from `Cc1c(C(=O)C(C(=O)c2cccc(Cl)c2)=C2Nc3ccccc3N2)cccc1[C@@H](O)CO` [Ex 4-23] to `Cc1cccc(C(=O)C(C(=O)c2cccc([C@@H](O)CO)c2Cl)=C2Nc3ccccc3N2)c1` [Ex 4-32], the “(B)/(A) ratio” value falls from 6.2 to 5.6.

For `Cc1c(C(=O)C(C(=O)c2cc(F)cc(F)c2)=C2Nc3ccccc3N2)cccc1[C@@H](O)CO` [Ex 4-5], the “(B)/(A) ratio” value was 31.2.
